Results published in PMC3257281.
These are yes or no findings as the source states them, for the method shown.

Experiments:
[1] = molecular target: GbpA_(D1–3), GbpA domains 1 to 3 (residues 24-414) (V. cholerae) (UniProt Q9KLD5); test: SAXS; both purified
[2] = molecular target: GbpAfl, mature full-length GlcNAc binding protein A (residues 24-485) (V. cholerae) (UniProt Q9KLD5); test: SAXS; both purified

Row | Substance | binding [1] | binding [2]
1 | GbpA_(D1–3), GbpA domains 1 to 3 (residues 24-414) (from UniProt Q9KLD5 24-414) (domain or fragment) | no binding | 
2 | GbpAfl, mature full-length GlcNAc binding protein A (residues 24-485) (from UniProt Q9KLD5 24-485) |  | no binding
